These are yes or no findings as the source states them, for the method shown. Binding seen in cells or lysates may run through a third protein. Some binding calls cover weakened binding; strength is not graded here.
Legend:
Test in all cases: co-IP; antibody (anti-CD47 B6H12, anti-CD36, anti-FGF2, anti-VEGF, anti-β1 integrin, anti-LRP1 heavy chain) covalently coupled to resin (Pierce Co-IP kit), incubated with whole HUVEC protein lysate (or conditioned media) overnight at 4°C, no cross-linker; cells treated with 100 μM TAX2 or control peptide; for VEGFR2 also 30 ng/mL VEGF for 5 min; immunoblot
[1] = target: CD36, endogenous in HUVECs (human (endogenous in HUVECs)) (UniProt P16671)
[2] = target: CD47, endogenous in HUVECs (human (endogenous in HUVECs)) (UniProt Q08722)
[3] = target: β1 integrin, endogenous in HUVECs (human (endogenous in HUVECs)) (UniProt P05556)

Protein sequences, listed by entry. Tags and fused reporters are not part of them. Residues count along the entry.
UniProt P16671: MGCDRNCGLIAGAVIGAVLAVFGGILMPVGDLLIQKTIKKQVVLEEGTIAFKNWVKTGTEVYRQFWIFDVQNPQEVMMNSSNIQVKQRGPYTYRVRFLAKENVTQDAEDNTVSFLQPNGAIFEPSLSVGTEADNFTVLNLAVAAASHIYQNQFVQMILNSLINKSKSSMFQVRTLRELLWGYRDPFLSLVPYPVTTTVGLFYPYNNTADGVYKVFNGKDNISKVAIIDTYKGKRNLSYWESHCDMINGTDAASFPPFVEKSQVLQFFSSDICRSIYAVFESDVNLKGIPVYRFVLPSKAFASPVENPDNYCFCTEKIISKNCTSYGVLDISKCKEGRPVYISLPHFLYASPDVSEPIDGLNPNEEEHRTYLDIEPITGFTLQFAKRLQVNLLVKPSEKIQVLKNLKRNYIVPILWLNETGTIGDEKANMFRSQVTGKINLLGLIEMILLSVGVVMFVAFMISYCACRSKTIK
UniProt Q08722, residues 19-323: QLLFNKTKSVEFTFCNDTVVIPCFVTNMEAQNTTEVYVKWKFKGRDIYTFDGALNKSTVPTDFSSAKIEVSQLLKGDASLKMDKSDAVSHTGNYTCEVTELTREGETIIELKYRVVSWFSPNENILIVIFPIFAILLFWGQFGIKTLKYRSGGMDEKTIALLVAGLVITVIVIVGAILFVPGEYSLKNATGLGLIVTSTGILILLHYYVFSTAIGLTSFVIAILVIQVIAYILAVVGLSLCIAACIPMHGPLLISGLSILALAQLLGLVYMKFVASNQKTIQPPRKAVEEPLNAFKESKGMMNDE
UniProt P05556: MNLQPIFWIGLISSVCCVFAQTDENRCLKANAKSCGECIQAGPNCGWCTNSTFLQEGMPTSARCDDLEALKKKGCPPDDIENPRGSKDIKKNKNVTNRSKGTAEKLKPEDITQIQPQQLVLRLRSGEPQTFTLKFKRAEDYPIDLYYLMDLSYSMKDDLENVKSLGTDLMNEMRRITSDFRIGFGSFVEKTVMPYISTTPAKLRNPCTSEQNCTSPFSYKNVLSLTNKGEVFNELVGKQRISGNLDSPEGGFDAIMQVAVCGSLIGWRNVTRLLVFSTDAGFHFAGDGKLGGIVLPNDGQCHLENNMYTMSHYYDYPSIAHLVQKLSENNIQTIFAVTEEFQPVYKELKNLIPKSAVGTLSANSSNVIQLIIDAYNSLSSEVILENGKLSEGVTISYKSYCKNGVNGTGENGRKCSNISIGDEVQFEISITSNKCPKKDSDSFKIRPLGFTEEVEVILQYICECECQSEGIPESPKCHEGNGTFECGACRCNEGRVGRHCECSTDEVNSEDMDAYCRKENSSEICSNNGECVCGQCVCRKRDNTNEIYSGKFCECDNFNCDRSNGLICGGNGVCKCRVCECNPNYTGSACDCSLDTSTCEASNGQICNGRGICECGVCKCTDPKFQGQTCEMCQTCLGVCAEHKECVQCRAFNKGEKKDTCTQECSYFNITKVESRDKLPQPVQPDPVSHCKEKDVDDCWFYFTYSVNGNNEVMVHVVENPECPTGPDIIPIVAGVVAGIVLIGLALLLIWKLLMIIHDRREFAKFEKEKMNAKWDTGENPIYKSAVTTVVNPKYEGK
UniProt P35968, residues 20-1356: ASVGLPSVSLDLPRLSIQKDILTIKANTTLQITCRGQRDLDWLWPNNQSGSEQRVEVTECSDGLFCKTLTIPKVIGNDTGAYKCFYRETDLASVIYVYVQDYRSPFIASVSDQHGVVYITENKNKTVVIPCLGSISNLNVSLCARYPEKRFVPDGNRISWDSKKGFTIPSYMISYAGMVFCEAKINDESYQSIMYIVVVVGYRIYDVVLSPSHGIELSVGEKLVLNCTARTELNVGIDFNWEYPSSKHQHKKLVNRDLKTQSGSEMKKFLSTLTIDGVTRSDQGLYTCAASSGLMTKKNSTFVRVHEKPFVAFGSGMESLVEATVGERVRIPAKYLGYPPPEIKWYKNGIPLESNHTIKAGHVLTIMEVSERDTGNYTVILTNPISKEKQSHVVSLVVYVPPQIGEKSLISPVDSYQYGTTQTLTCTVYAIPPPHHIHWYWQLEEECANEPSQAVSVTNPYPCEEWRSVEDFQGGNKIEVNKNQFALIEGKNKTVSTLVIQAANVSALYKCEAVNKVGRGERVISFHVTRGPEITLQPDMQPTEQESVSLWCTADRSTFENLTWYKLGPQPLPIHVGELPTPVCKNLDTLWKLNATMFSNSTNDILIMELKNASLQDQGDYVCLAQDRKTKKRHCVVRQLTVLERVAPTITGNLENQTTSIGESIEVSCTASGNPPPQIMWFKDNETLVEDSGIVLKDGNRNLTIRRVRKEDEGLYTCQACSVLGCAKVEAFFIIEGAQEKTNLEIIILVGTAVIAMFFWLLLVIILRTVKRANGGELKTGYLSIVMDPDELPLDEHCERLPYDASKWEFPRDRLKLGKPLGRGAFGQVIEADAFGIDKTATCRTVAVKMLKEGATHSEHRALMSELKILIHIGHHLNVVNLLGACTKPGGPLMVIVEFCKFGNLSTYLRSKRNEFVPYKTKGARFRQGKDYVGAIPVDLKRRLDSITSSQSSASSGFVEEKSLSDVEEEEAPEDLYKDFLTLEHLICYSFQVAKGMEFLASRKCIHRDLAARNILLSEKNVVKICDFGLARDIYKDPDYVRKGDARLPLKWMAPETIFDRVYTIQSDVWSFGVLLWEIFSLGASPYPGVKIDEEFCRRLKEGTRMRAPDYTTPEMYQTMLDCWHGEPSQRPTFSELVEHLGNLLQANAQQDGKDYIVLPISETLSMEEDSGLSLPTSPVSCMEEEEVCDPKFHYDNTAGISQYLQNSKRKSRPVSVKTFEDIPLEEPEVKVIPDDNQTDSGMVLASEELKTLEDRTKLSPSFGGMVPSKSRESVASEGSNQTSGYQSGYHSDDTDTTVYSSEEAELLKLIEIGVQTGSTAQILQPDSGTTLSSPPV
UniProt P07996, residues 19-1170: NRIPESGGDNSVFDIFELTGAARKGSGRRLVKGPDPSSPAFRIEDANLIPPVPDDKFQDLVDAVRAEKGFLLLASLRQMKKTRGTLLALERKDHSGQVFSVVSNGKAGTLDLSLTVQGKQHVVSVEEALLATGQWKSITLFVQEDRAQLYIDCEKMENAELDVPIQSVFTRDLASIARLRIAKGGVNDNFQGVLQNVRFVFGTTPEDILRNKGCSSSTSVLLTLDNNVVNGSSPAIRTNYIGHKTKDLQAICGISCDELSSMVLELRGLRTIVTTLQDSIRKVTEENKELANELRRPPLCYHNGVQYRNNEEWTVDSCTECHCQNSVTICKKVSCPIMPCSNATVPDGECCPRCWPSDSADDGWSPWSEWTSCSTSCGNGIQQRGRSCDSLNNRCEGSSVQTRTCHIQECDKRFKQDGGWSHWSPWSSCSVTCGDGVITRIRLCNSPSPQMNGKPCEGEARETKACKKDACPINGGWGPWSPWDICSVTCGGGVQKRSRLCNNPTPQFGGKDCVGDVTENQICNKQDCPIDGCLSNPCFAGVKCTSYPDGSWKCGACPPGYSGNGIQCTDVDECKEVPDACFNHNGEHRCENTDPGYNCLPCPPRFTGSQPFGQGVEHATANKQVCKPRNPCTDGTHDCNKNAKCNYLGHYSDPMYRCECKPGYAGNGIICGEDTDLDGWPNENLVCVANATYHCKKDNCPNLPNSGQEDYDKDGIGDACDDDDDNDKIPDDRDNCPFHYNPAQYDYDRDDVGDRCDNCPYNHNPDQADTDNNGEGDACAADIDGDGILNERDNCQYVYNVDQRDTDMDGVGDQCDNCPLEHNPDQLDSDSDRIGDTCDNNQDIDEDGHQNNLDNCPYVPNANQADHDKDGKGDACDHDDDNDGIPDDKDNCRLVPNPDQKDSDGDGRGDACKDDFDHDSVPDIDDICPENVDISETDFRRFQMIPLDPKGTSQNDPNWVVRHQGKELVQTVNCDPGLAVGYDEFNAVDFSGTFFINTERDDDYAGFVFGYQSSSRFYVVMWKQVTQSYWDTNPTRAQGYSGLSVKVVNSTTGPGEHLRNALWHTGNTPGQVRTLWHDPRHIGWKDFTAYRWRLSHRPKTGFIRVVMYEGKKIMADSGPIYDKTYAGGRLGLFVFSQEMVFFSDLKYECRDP

Substance	binding [1]	binding [2]	binding [3]
VEGFR2 (vascular endothelial growth factor receptor 2), activated, endogenous in HUVECs (from UniProt P35968 20-1356)	binds	–	–
thrombospondin-1 (TSP-1), endogenous in HUVECs (from UniProt P07996 19-1170)	–	binds	binds

— paper PMC4627230, “Identification of TAX2 peptide as a new unpredicted anti-cancer agent” (Oncotarget, 2015)
